PubChem BioAssay AID1224826 – NIAID, 2016
The whole screen tested about 17,000 reagents; shown is a part drawn at random. About 1,110 of all reagents (6.6%) count as active. 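Active means lowered or raised reporter signal; replicate intensities are raw and not normalised per plate.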 Not all columns of the deposit are shown.

Test: 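Knock-downs that raise or lower Tnf reporter signal after endotoxin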 (primary screen)
System: RAW264.7 G9 macrophages from mouse bearing reporters for p65 (GFP) and the Tnf promoter (mCherry)
Reagents: siRNA pool against mouse genes, 100 nM
Duration: 16 h of LPS stimulation, after 2 days of siRNA transfection
Treatment: bacterial lipopolysaccharide (Salmonella minnesota R595), 10 ng/ml
Measured: 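Imaged Tnf reporter mCherry in nuclei, minus background, normalised per plate to the median and expressed as robust z-scores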
Direction: Tnf reporter robust z-score: higher = stronger Tnf promoter reporter signal after LPS
Rule for the call: 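a well counts as active at a score of -1.3 or below (Tlr4 knock-down control median) or above 3 (raised signal); controls and wells holding fewer than 50 cells are excluded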
Meaning of the calls: active = Tnf reporter clearly lowered or raised; inactive = no clear change in Tnf reporter

After knock-down of Fgf22 [SID315472841], the screen gave Tnf reporter robust z-score 0.96; fewer than 50 cells in well enough cells in well; inactive. Tnk1 [SID315475870] scored Tnf reporter robust z-score -0.29; fewer than 50 cells in well enough cells in well; inactive. After knock-down of Nipal2 [SID315478262], the screen gave Tnf reporter robust z-score 1.03; fewer than 50 cells in well enough cells in well; inactive. Knock-down of Fbxl14 [SID315476274] resulted in: Tnf reporter robust z-score 0.32; fewer than 50 cells in well enough cells in well; inactive. Adamts4 [SID315479535] scored Tnf reporter robust z-score 0.36; fewer than 50 cells in well enough cells in well; inactive. After knock-down of Ccnd3 [SID315465816] the results were Tnf reporter robust z-score 1.49; fewer than 50 cells in well enough cells in well; inactive.

Knock-down of Or4c121 [SID315480583] gave: Tnf reporter robust z-score 1.05; fewer than 50 cells in well enough cells in well; inactive. After knock-down of H2-M10.5 [SID315478369] the results were Tnf reporter robust z-score 1.57; fewer than 50 cells in well enough cells in well; inactive. Depletion of Pitpnc1 [SID315474330] resulted in: Tnf reporter robust z-score -0.45; fewer than 50 cells in well enough cells in well; inactive. Against Neu3 [SID315470868] the deposit lists Tnf reporter robust z-score 0.48; fewer than 50 cells in well enough cells in well; inactive. With knock-down of Washc2 [SID315470655] the results were Tnf reporter robust z-score -1.77; fewer than 50 cells in well enough cells in well; active. Synm [SID315479079] showed Tnf reporter robust z-score 0.3; fewer than 50 cells in well enough cells in well; inactive.

Knock-down of Tmem198 [SID315481210] gave: Tnf reporter robust z-score -1.29; fewer than 50 cells in well enough cells in well; inactive. Derl2 [SID315477069] gave Tnf reporter robust z-score 0.42; fewer than 50 cells in well enough cells in well; inactive. Against Gga3 [SID315480733] the deposit lists Tnf reporter robust z-score 1.72; fewer than 50 cells in well enough cells in well; inactive.

Called active, of those listed so far:
Washc2 [SID315470655]: Tnf reporter robust z-score = -1.77; fewer than 50 cells in well = enough cells in well; Call = active

Further results:
With knock-down of Vps4a [SID315477056], the record shows Tnf reporter robust z-score 1.08; fewer than 50 cells in well enough cells in well; inactive. Depletion of Eda [SID315466430] came out at: Tnf reporter robust z-score -0.91; fewer than 50 cells in well enough cells in well; inactive. Against Nkx2-1 [SID315469729], the values are Tnf reporter robust z-score 0.04; fewer than 50 cells in well enough cells in well; inactive. Knock-down of Calb2 [SID315465726] came out at: Tnf reporter robust z-score -0.37; fewer than 50 cells in well enough cells in well; inactive. For Ddt [SID315466291], the entry reads fewer than 50 cells in well fewer than 50 cells per well; well left out of calls; inactive. Silencing of 5330431K02Rik [SID315473445] resulted in: fewer than 50 cells in well fewer than 50 cells per well; well left out of calls; inactive.

Silencing of Dpf1 [SID315470718] gave: Tnf reporter robust z-score -0.78; fewer than 50 cells in well enough cells in well; inactive. Myh9 [SID315468062] showed Tnf reporter robust z-score 0.06; fewer than 50 cells in well enough cells in well; inactive. For Stard6 [SID315477172], the entry reads Tnf reporter robust z-score 1.14; fewer than 50 cells in well enough cells in well; inactive. Against Xpc [SID315470065], the entry reads Tnf reporter robust z-score -0.26; fewer than 50 cells in well enough cells in well; inactive. After knock-down of Gp6 [SID315479706], the record shows Tnf reporter robust z-score -0.64; fewer than 50 cells in well enough cells in well; inactive. Depletion of Eme1 [SID315480771] came out at: Tnf reporter robust z-score -0.69; fewer than 50 cells in well enough cells in well; inactive.
